Measured values published in US20100144749A1, “TREATMENT OF CANCERS WITH ACQUIRED RESISTANCE TO KIT INHIBITORS” (priority 2005, published 2010).
pIC50: −log10 of the molar value.

Assays:
Format in all cases: cell-based, murine
[1] = test system: Ba/F3 cells expressing c-KIT Exon 11/V654A Gleevec-resistant double mutant; assay: Cell proliferation assay (CellTiter-Glo), Ba/F3 c-KIT exon 11/V654A; conditions: Mus musculus, BaF3, 72 h, dose range 0.6 to 10,000 nM, mean of at least three experiments, read-out: IC50 of cell proliferation inhibition, Exon 11/Gleevec-resistant Double Mutant V654A
Procedure: (§1) All mutations were confirmed by DNA sequencing.
(§2) Selective pressure was applied to the transfected cells by removing IL-3 from the culture medium. After IL-independent populations, further selective pressure was applied by also growing the cells in the presence of 1 mg/mL G418. […] The stable pools were further characterized by sequencing genomic DNA to confirm the presence of the transfected c-KIT cDNA.
(§3) This assay utilizes cellular ATP as a marker for cell proliferation/viability. […] Plates were then incubated in a 5% CO2 incubator at 37° C. for 3 days. After 72 h, 100 microliters of lysis/luciferase reagent (CellTiter-Glo, Promega G7573) was added to each well. The cells were then incubated on a shaker for 5 minutes at room temperature, and luminescence was measured on a Victor 5 (Perkin Elmer) spectrophotometer. Growth inhibition was measured by comparing luminescence signal from treated vs. untreated cells in assay plates, and the IC50 analysis of cell proliferation inhibition by compounds was analyzed using Analyze 5 in-house software. […] The IC50 values are mean values calculated from at least three experiments.

[2] = test system: Ba/F3 cells expressing c-KIT Exon 11/D816G Gleevec-resistant double mutant; assay: Cell proliferation assay (CellTiter-Glo), Ba/F3 c-KIT exon 11/D816G; conditions: Mus musculus, BaF3, 72 h, dose range 0.6 to 10,000 nM, mean of at least three experiments, read-out: IC50 of cell proliferation inhibition, Exon 11/Gleevec-resistant Double Mutant D816G
Procedure: as §1, §2, §3

[3] = test system: Ba/F3 cells expressing c-KIT Exon 11/Y823D Gleevec-resistant double mutant; assay: Cell proliferation assay (CellTiter-Glo), Ba/F3 c-KIT exon 11/Y823D; conditions: Mus musculus, BaF3, 72 h, dose range 0.6 to 10,000 nM, mean of at least three experiments, read-out: IC50 of cell proliferation inhibition, Exon 11/Gleevec-resistant Double Mutant Y823D
Procedure: as §1, §2, §3

[4] = test system: Ba/F3 cells expressing c-KIT Exon 11/N822K Gleevec-resistant double mutant; assay: Cell proliferation assay (CellTiter-Glo), Ba/F3 c-KIT exon 11/N822K; conditions: Mus musculus, BaF3, 72 h, dose range 0.6 to 10,000 nM, mean of at least three experiments, read-out: IC50 of cell proliferation inhibition, Exon 11/Gleevec-resistant Double Mutant N822K
Procedure: as §1, §2, §3

[5] = test system: Ba/F3 cells expressing human c-KIT with exon 11 deletion of residues 557-558; assay: Cell proliferation assay (CellTiter-Glo), Ba/F3 c-KIT exon 11 deletion mutant; conditions: BaF3; Ba/F3, c-KIT exon 11 del 557-558; 72 h; dose range 0.6 to 10,000 nM; mean of at least three experiments; read-out: IC50 of cell proliferation inhibition, Exon 11 (WT)
Procedure: as §1, §2, §3

[6] = test system: Ba/F3 cells expressing c-KIT Exon 11/T670I Gleevec-resistant double mutant; assay: Cell proliferation assay (CellTiter-Glo), Ba/F3 c-KIT exon 11/T670I; conditions: Mus musculus, BaF3, 72 h, dose range 0.6 to 10,000 nM, mean of at least three experiments, read-out: IC50 of cell proliferation inhibition, Exon 11/Gleevec-resistant Double Mutant T670I
Procedure: as §1, §2, §3

## Cc1ccc(NC(=O)c2ccc(CN3CCN(C)CC3)cc2)cc1Nc1nccc(-c2cccnc2)n1 [Gleevec, imatinib]
[1]
  pIC50: 6.77
[2]
  pIC50: 7.06
[3]
  pIC50: 6.53
[4]
  pIC50: 6.66
[5]
  pIC50: 8.30
[6]
  pIC50: < 5.00
